{"sequences": {"note": "Amino acid sequences for entries named in this document (tags omitted). Residues count along the entry.", "UniProt Q15116, residues 21-167": "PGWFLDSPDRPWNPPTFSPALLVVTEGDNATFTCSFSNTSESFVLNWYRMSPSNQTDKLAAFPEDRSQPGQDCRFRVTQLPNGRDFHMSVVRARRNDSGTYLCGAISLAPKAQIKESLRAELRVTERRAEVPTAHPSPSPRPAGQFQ"}, "source": "patent US20240239892A1", "about": "(SUZHOU KANOVA BIOPHARMACEUTICAL, published 2024)", "binders": {"B1": {"name": "VH6 + VL1 (antibody, human IgG1, kappa, V domains shown)", "VH": "EVQLVESGGGLVQPGGSLRLSCAASGFTFSSYGMSWVRQAPGKRLEWVAIISGGGRDIYYLDSVKGRFTISRDNSKNTLYLQMNSLRAEDTAVYYCSSPIYDAYSFAYWGQGTLVTVSS", "VL": "EIVMTQSPATLSVSPGERATLSCRASQTISNNLHWYQQKPGQAPRLLIYYASQSISGIPARFSGSGSGTEFTLTISSLQSEDFAVYYCQQSYSWPLTFGGGTKLEIKR", "notes": "Humanized full-length IgG expressed in HEK293; For SPR it was captured from culture medium through its Fc; also called HC1 + LC1"}, "B2": {"name": "VH7 + VL1 (antibody, human IgG1, kappa, V domains shown)", "VH": "B1 VH with R44G, T78N", "VL": "B1 VL", "notes": "Humanized full-length IgG expressed in HEK293; also called HC2 + LC1"}, "B3": {"name": "anti-PD-1 antibody VH7+VL6 (antibody, human IgG1, kappa, V domains shown)", "VH": "B1 VH with R44G, T78N", "VL": "B1 VL with M4L, Q37H, Y49K, A60S, E70D, Y87F", "notes": "also called HC2 + LC2"}, "B4": {"name": "VH6 + VL6 (antibody, human IgG1, kappa, V domains shown)", "VH": "B1 VH", "VL": "B1 VL with M4L, Q37H, Y49K, A60S, E70D, Y87F", "notes": "Humanized full-length IgG expressed in HEK293; also called HC1 + LC2"}}, "note": "Where a chain is given by its changes, count along the chain named. No constants are given. Whether binding was seen depends on the method and setting. Some binding calls cover weakened binding; strength is not graded here.", "data": [{"molecular_target": "PD-1 (analyte of the SPR assay of Example 3) (human) (UniProt Q15116)", "test": "SPR off-rate ranking (Biacore 8K)", "values": [{"binder": "B1", "binding": "binds"}, {"binder": "B2", "binding": "binds"}, {"binder": "B3", "binding": "binds"}, {"binder": "B4", "binding": "binds"}]}]}
